PubChem BioAssay AID1671190 (National Center for Advancing Translational Sciences (NCATS), 2021)
Hit rate of the full screen: of about 580,000 compounds, about 6,100 (1.1%) were called active. Inconclusive results, whose numbers are uncertain, are shown with a selection of clear calls. Calls follow the shape of the dose curve; as a rule, active = well fitted inhibition curve with a large enough effect; inconclusive = small, poorly fitted or top-dose-only effect, or another doubt; inactive = no such curve, though single readings can be large or run the other way. Potencies of inconclusive entries are doubtful fits and often do not repeat.

Protein sequences, listed by entry. Tags and fused reporters are not part of them. Lines headed by an entry give the natural chain unless they say otherwise; changes in a name come on top.
UniProt P18054: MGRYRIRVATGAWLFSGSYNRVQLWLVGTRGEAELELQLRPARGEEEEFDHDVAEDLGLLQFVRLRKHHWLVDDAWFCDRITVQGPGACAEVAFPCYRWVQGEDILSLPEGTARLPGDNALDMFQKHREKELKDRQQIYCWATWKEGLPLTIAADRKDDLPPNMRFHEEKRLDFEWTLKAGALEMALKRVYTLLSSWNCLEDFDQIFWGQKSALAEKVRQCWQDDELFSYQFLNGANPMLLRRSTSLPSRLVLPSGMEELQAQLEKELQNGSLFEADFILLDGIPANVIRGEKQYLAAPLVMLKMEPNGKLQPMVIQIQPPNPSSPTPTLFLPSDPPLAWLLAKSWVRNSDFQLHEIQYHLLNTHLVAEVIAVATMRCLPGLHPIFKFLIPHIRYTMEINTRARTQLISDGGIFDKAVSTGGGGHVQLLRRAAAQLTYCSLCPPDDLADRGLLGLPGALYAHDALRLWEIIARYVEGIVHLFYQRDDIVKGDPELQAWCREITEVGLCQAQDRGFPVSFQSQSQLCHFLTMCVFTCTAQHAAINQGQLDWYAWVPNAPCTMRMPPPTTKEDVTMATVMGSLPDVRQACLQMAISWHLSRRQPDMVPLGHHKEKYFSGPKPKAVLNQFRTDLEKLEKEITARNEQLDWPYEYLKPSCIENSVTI

What follows are compounds tested against Polyunsaturated fatty acid lipoxygenase ALOX12 (Homo sapiens) (UniProt P18054) (assay: Primary qHTS assay for inhibitors of human arachidonate 12S-lipoxygenase (ALOX12): Round 2). Details: purified 12hLO, xylenol orange hydroperoxide absorbance; activity change, negative = inhibition: at 108 µM (top of the series) unless noted.
Method in brief: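 Hydroperoxide product was detected by ferrous iron/xylenol orange as the 573 to 405 nm absorbance ratio. Arachidonic acid at 40 uM (final) was turned over for 30 min at room temperature by 150 nM human 12hLO, pH 7.0 Hepes buffer, after 15 min compound preincubation.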
% is scaled to controls: 0 for no effect and ±100 for the full control effect; potency is read from the fitted curve at half-maximal effect.

| Compound | activity change, negative = inhibition | Potency |
| --- | --- | --- |
| NS(=O)(=O)c1ccc(CNC(=O)c2cc(-c3cccnc3)nc3ccccc23)cc1 | inactive: -8.09% | – |
| Cc1nc(C2CCCN(C(=O)C(C)(C)N)C2)cc(N2CCOCC2)n1 (stereo not drawn) | – | inconclusive: 11.2 µM [inhibitor, full curve, poor fit] |
| CC(C)N(Cc1nc(-c2ccc(Cl)cc2)no1)C(=O)c1ccco1 | inactive: -16% | – |
| O=C(O)C1CC(=O)N(c2ccc(S(=O)(=O)Nc3ccc(F)c(F)c3)cc2)C1 (stereo not drawn) | – | inconclusive: 11.2 µM [inhibitor, full curve, poor fit] |
| CCCCn1nnnc1C(c1cc2ccccc2o1)N1CCN(C/C=C/c2ccccc2)CC1 (stereo not drawn) | – | inconclusive: 89.1 µM [inhibitor, single point] |
| Cc1ccccc1CSc1nc(=O)c2c(n1C)NC(=O)CC2c1ccc(OCC(N)=O)cc1 (stereo not drawn) | – | inconclusive: 56.2 µM [inhibitor, single point] |
| Cc1ccc(C(=O)C(OC(=O)CNC(=O)c2ccc(Cl)cc2)c2ccccc2)cc1 (stereo not drawn) | – | inconclusive: 112 µM [inhibitor, single point] |
| Cc1ccc(C2C(C#N)=C(N)Nc3ncnn32)cc1 (stereo not drawn) | – | inconclusive: 0.282 µM [inhibitor, full curve, poor fit] |
| Cc1ccc(C2=NNC3(CCOC(C)(C)C3)S2)cc1 (stereo not drawn) | – | inconclusive: 44.7 µM [inhibitor, partial curve, poor fit] |
| CSCc1nc(CNc2nc(C3CCCC3)nc3c2cnn3C)cs1 | inactive: 19.3% | – |
| COc1ccccc1-c1noc(CSc2nc(C)cc(=O)[nH]2)n1 | – | inconclusive: 79.4 µM [inhibitor, single point] |
| NC(=O)c1cc(Cl)ccc1OCC(=O)N1CCCCCC1 | inactive: 19.7% | – |
| CC(C)(C)c1ccc(C(=O)NC(Cc2c[nH]c3ccccc23)C(=O)OCC(=O)c2ccc(Br)cc2)cc1 (stereo not drawn) | inactive: -11.3% | – |
| O=S1(=O)c2c(cccc2N2CCCCC2)O[C@H](COCc2ccccc2)CN1C1CC1 | – | inconclusive: 112 µM [inhibitor, single point] |
| CC1=CC(C)(C)NC(=S)N1c1cc(C)ccc1C | – | inconclusive: 44.7 µM [inhibitor, partial curve, poor fit] |
| Cc1ccccc1N=Cc1cc2c(cc1O)OC(N)=C(C#N)C2c1ccccc1 (stereo not drawn) | – | inconclusive: 44.7 µM [inhibitor, partial curve] |
| COC(=O)c1c(C)cccc1NCC(=O)NC(=O)NC(C)C | – | inconclusive: 79.4 µM [inhibitor, single point] |
| CN(C)C(=S)Nc1ccc(N2CCOCC2)cc1 | – | inconclusive: 7.94 µM [inhibitor, partial curve, poor fit] |
| COc1ccc(NC(=O)Nc2ccc(C)n(CC(=O)Nc3ccc(C)c(C)c3)c2=O)cc1 | inactive: 6.99% | – |
| O=C(Nc1ccccc1)Nc1c(NC2CCCCC2)c2ccccc2oc1=O | – | inconclusive: 0.398 µM [inhibitor, full curve, poor fit] |
| CC(C)(C)c1ccc(NC(=O)CSc2nc3ccccc3o2)cc1 | – | inconclusive: 44.7 µM [inhibitor, partial curve, poor fit] |
| CC(C)(C)OC(=O)NCCCC[C@H](NC(=O)c1nc[nH]c1C(=O)N1CCN(C(=O)OC(C)(C)C)CC1)C(=O)OC(C)(C)C | inactive: -0.773% | – |
| CC(=O)Nc1ccc(SCC(=O)c2cc(C)ccc2C)cc1 | inactive: -9.99% | – |

Three of these compounds, set out differently.
Compound | activity change, negative = inhibition | Potency
Cc1ccccc1CSc1nc(=O)c2c(n1C)NC(=O)CC2c1ccc(OCC(N)=O)cc1 (stereo not drawn) | – | inconclusive: 56.2 µM [inhibitor, single point]
Cc1ccc(C(=O)C(OC(=O)CNC(=O)c2ccc(Cl)cc2)c2ccccc2)cc1 (stereo not drawn) | – | inconclusive: 112 µM [inhibitor, single point]
Cc1ccc(C2C(C#N)=C(N)Nc3ncnn32)cc1 (stereo not drawn) | – | inconclusive: 0.282 µM [inhibitor, full curve, poor fit]

(list continues)

| Compound | activity change, negative = inhibition | Potency |
| --- | --- | --- |
| CCc1ccc(-c2cc(C(=O)NCCc3ccccc3)c3ccccc3n2)cc1 | inactive: 16.8% | – |
| O=C1COc2ccc(-c3ccoc3)nc2CN1Cc1ccc(C(F)(F)F)cc1 | – | active: 39.8 µM |
| COc1ccc(NC2=N[C@H]3[C@@H](O)[C@H](O)C[C@H](C(=O)NCc4ccccc4OC)[C@H]3S2)cc1 | inactive: 16.9% | – |
| CCNC(=O)NC[C@H]1O[C@H](Cc2cc(COC)on2)CC[C@@H]1O | inactive: -23.3% [at 176 µM] | – |
| CCn1cc(C(=O)NCC2CCCO2)c(=O)c2cc(S(=O)(=O)N3CCCCC3)ccc21 (stereo not drawn) | – | inconclusive: 44.7 µM [inhibitor, full curve, poor fit] |
| COc1ccc(C(=O)CSc2nccc(=O)[nH]2)cc1 | – | inconclusive: 56.2 µM [inhibitor, partial curve, poor fit] |
| O=C(Cc1cccs1)NCc1ccsc1 | inactive: 14.4% | – |
| COc1cc(NC(=O)CSc2ncnc3sc4c(c23)CCC(C)C4)c(C(=O)O)cc1OC (stereo not drawn) | inactive: -16.9% | – |
| O=C(NCc1cccnc1)c1ccc(-c2ccc(Cl)cc2)o1 | – | inconclusive: 28.2 µM [inhibitor, partial curve, poor fit] |
| NS(=O)(=O)c1ccc(CCNc2nc(CN3CCOCC3)nc3sc4c(c23)CCC4)cc1 | – | inconclusive: 28.2 µM [inhibitor, single point] |
| O=C(c1[nH]nc2c1CCc1ccccc1-2)N1CCC(c2noc(-c3ccccn3)n2)C1 (stereo not drawn) | inactive: 8.32% | – |
| Cc1ccccc1CSc1nnc(-c2ccccc2)c(=O)[nH]1 | – | inconclusive: 7.08 µM [inhibitor, full curve, poor fit] |
| O=C(CONS(=O)(=O)c1ccc(Cl)cc1)NCCNc1ncc(C(F)(F)F)cc1Cl | – | inconclusive: 70.8 µM [inhibitor, partial curve, poor fit] |
| COc1ccc(Cl)cc1NC(=S)NCc1ccco1 | inactive: -14.2% | – |
| c1ccc(-c2nc(C3CCCCC3)c3sccc3n2)cc1 | – | inconclusive: 126 µM [inhibitor, partial curve, poor fit] |
| CN(C)S(=O)(=O)c1ccc(NC(=S)NC(=O)c2cccs2)cc1 | inconclusive: -36% [inhibitor] | – |
| Cc1ccc(N2C(=O)c3ccccc3C2C(=O)c2cc(C)ccc2O)cc1 (stereo not drawn) | – | inconclusive: 35.5 µM [inhibitor, partial curve, poor fit] |
| Cc1cc(N2CCN(C)CC2)nc(=S)[nH]1 | inactive: 1.93% | – |
| CCN1CCN(S(=O)(=O)c2ccc(Cl)c(C(=O)NC(C)c3ccccc3Cl)c2)CC1 (stereo not drawn) | – | inconclusive: 39.8 µM [inhibitor, partial curve, poor fit] |
| Cc1ccc(OCCn2ccnc2)c(C)c1 | – | inconclusive: 50.1 µM [inhibitor, partial curve, poor fit] |
| CC(NC(=O)c1ccoc1)C(=O)Nc1cccnc1N1CCCCC1 (stereo not drawn) | – | inconclusive: 141 µM [inhibitor, partial curve, poor fit] |
| CCc1ccc2c(c1)c(N=NC1=NC(=O)CS1)c(O)n2CC | – | inconclusive: 79.4 µM [inhibitor, partial curve, poor fit] |
| COc1cccc(-c2ccc(-c3noc(-c4cccs4)n3)c(OC)n2)c1 | – | inconclusive: 44.7 µM [inhibitor, partial curve, poor fit] |

| Compound | activity change, negative = inhibition | Potency |
| --- | --- | --- |
| COc1ccccc1OCCn1cc(C(=O)C2CC2)c2ccccc21 | – | inconclusive: 79.4 µM [inhibitor, partial curve, poor fit] |
| COc1ccc(F)c(F)c1CN1CCC2(CCNCC2)C1 | – | inconclusive: 25.1 µM [inhibitor, full curve] |
| Cc1ccccc1C(=O)N[C@H](C(=O)N1CCC[C@H]1C(=O)NCCc1ccccc1Cl)c1ccccc1 | inactive: -3.18% | – |
| Cn1c(=O)oc2cc(S(=O)(=O)Nc3ccc(Cl)cc3)ccc21 | – | inconclusive: 89.1 µM [inhibitor, partial curve, poor fit] |
| COc1ccc(-c2ccc(OC(=O)NC3CCS(=O)(=O)C3)cc2)cc1 (stereo not drawn) | – | inconclusive: 31.6 µM [inhibitor, single point] |
| Cc1ccc(Nc2c(-c3ccc(C)o3)nc3cnccn23)cc1 | – | inconclusive: 126 µM [inhibitor, partial curve, poor fit] |
| CCC(C)N1C(=S)SC(C)(C)C1N(O)C(=O)NC1CCCCC1 (stereo not drawn) | – | inconclusive: 89.1 µM [inhibitor, partial curve, poor fit] |
| O=[N+]([O-])c1cccc(OCCN2CCC(Cc3ccccc3)CC2)c1 | – | active: 0.631 µM |
| COC(=O)C1=CO[C@@H](OC2OC(CO)C(O)C(O)C2O)[C@@H]2[C@@H](C)[C@@H](O)C[C@H]12 (stereo partly drawn) | inactive: -3.23% | – |
| Brc1ccc(C2Nc3cccc4cccc(c34)N2)cc1 | – | inconclusive: 3.16 µM [inhibitor, partial curve, poor fit] |
| CC(=O)N/N=C(\C)c1ccccc1 | inactive: 14.4% | – |
| Cc1ccc(C)c(NC(=O)CN2C(=O)NC(c3ccc(Cl)cc3)C3=C2COC3=O)c1 (stereo not drawn) | – | inconclusive: 28.2 µM [inhibitor, partial curve] |
| CC1(C)CC(=O)C(C(=O)/C=C/c2ccco2)C(=O)C1 | – | inconclusive: 50.1 µM [inhibitor, partial curve, poor fit] |
| O=C(Nc1ccccc1)c1ccc2c(c1)OCCN(c1ccccc1)C2 | inactive: 8.12% [at 176 µM] | – |
| Cc1ccc(/C=C/C(=O)Nc2cccc3cccnc23)o1 | inactive: 31.6% | – |
| O=C(NCc1cccc(Cl)c1)Nc1ccccc1Cl | inactive: -26% | – |
| Cc1ccc(CN2CCC(C)(Oc3cccc(Cl)c3)C2)cc1 (stereo not drawn) | – | inconclusive: 70.8 µM [inhibitor, partial curve, poor fit] |
| COC(=O)C1=C(C)N(Cc2ccccc2)C(=NCc2ccc(OC)cc2)N[C@H]1c1ccccc1 | – | inconclusive: 44.7 µM [inhibitor, partial curve, poor fit] |
| NNC(=S)NC1CCCCCCCCCCC1 | – | inconclusive: 126 µM [inhibitor, single point] |
| COc1cccc(/C=C2\Oc3cc(OS(C)(=O)=O)ccc3C2=O)c1 | – | inconclusive: 1.12 µM [inhibitor, full curve, poor fit] |
| O=C(Oc1c(Cl)cc(Cl)c2cccnc12)N1CCOCC1 | – | inconclusive: 31.6 µM [inhibitor, single point] |
| O=C(NC1CCCC1)[C@@H]1CCCN1C(=O)[C@H](Cc1cccnc1)NC(=O)N1CCOCC1 | – | inconclusive: 35.5 µM [inhibitor, partial curve, poor fit] |
